Measured values reported in article PMC5345878.

Molecular target: Histone variant H2A.B.3 (mouse)
Experiment: affinity purification with mass spectrometry; formaldehyde crosslinked mononucleosomes (MNase I) from testes of 28-30 day old mice; anti-H2A.B.3 or anti-H2A.Z antibody covalently bound to Dynabeads, 4 hours at 4°C; washes with 1 M NaCl; LC-MS/MS; two replicates each; proteins common to H2A.Z and H2A.B.3 removed

B1: Cold-inducible RNA-binding protein (protein, UniProt P60824 1-172)
chain: MASDEGKLFVGGLSFDTNEQALEQVFSKYGQISEVVVVKDRETQRSRGFGFVTFENIDDAKDAMMAMNGKSVDGRQIRVDQAGKSSDNRSRGYRGGSAGGRGFFRGGRSRGRGFSRGGGDRGYGGGRFESRSGGYGGSRDYYASRSQGGSYGYRSSGGSYRDSYDSYATHNE
In the case of B1, the binding is reported as “binds”.

B2: U5 small nuclear ribonucleoprotein 40 kDa (protein, UniProt Q6PE01 1-358)
chain: MIEQQKRKGPELPLVPVKRPRHELLLGAAGAGPGAGPQQATPGALLQAGPPRCSSLQAPIMLLSGHEGEVYCCKFHPNGSTLASAGFDRLILLWNVYGDCDNYATLKGHSGAVMELHYNTDGSMLFSASTDKTVAVWDSETGERVKRLKGHTSFVNSCYPARRGPQLVCTGSDDGTVKLWDIRKKAAVQTFQNTYQVLAVTFNDTSDQIISGGIDNDIKVWDLRQNKLTYTMRGHADSVTGLSLSSEGSYLLSNAMDNTVRVWDVRPFAPKERCVKIFQGNVHNFEKNLLRCSWSPDGSKIAAGSADRFVYVWDTTSRRVLYKLPGHAGSINEVAFHPDEPIILSASSDKRLYMGEIQ
For B2, the binding was “binds”.

B3: ATP-dependent RNA helicase DDX42 (protein, UniProt Q810A7 1-929)
chain: MNWNKGGPGTKRGFGFGGFAISAGKKEEAKLPQQSHSAFGAASSSSGFGKSAPPQLPSFYKIGSKRANFDEENAYFEDEEEDSSNVDLPYIPAENSPTRQQFHSKPADSDSDDDPLEAFMAEVEDQAARDMKRLEEKDKERKNVKGIRDDIEEEDDQEAYFRYMAENPTAGVVQEEEEDNLEYDSDGNPIAPSKKIIDPLPPIDHSEIDYPPFEKNFYNEHEEITNLTPQQLIDLRHKLNLRVSGAAPPRPGSSFAHFGFDEQLMHQIRKSEYTQPTPIQCQGVPVALSGRDMIGIAKTGSGKTAAFIWPMLIHIMDQKELEPGDGPIAVIVCPTRELCQQIHAECKRFGKAYNLRSVAVYGGGSMWEQAKALQEGAEIVVCTPGRLIDHVKKKATNLQRVSYLVFDEADRMFDMGFEYQVRSIASHVRPDRQTLLFSATFRKKIEKLARDILIDPIRVVQGDIGEANEDVTQIVEILHSGPSKWNWLTRRLVEFTSSGSVLLFVTKKANAEELASNLKQEGHNLGLLHGDMDQSERNKVISDFKKKDIPVLVATDVAARGLDIPSIKTVINYDVARDIDTHTHRIGRTGRAGEKGVAYTLLTPKDSNFAGDLVRNLEGANQHVSKELLDLAMQNAWFRKSRFKGGKGKKLNIGGGGLGYRERPGLGSENSDRGNNNNVMSNYEAYKPSTGAMGDRLTAMKAAFQSQYKSHFVAASLSNQKAGTSSAGASGWTSAGSLNSVPTNSAQQGHNSPDNPMTSSTKNIPGFNNSGNISSAPVTYPSIGAQGVNNTASGNNSREGIGGGNGKRERYTENRGGSRHSHGDGGNRHGDGGRHGDGYRYPESGSRHTDGHRHGETRHGGSAGRHGESRGANDGRNGESRKEGFNRENKMDPKVDSSRMDKVDSKTDKTPDGFAVPEPPKRKKSRWDS
B3 was tested, and the binding was “binds”.

B4: Pre-mRNA-splicing factor 38A (protein, UniProt Q4FK66 1-312)
chain: MANRTVKDAHSIHGTNPQYLVEKIIRTRIYESKYWKEECFGLTAELVVDKAMELKFVGGVYGGNIKPTPFLCLTLKMLQIQPEKDIIVEFIKNEDFKYVRMLGALYMRLTGTAIDCYKYLEPLYNDYRKIKSQNRNGEFVLMHVDEFIYELLHSERVCDIILPRLQKRYVLEEAEQLEPRVSALEEDMDDVESSEEEEEEDEKLERVPSPDHRRRSYRDLDKPRRSPALRYRRSRSRSPRRRSRSPKRRSPSPRRERHRSKSPRRHRSRSRDRRHRSRSKSPGHHRSHRHRSHSKSPERSKKSHKKSRRGNE
B4 was tested, and the binding was “binds”.

B5: Splicing factor 3B subunit 1 SF3b155 (protein, UniProt Q99NB9 1-1304)
chain: MAKIAKTHEDIEAQIREIQGKKAALDEAQGVGLDSTGYYDQEIYGGSDSRFAGYVTSIAATELEDDDDDYSSSTSLLGQKKPGYHAPVALLNDIPQSTEQYDPFAEHRPPKIADREDEYKKHRRTMIISPERLDPFADGGKTPDPKMNARTYMDVMREQHLTKEEREIRQQLAEKAKAGELKVVNGAAASQPPSKRKRRWDQTADQTPGATPKKLSSWDQAETPGHTPSLRWDETPGRAKGSETPGATPGSKIWDPTPSHTPAGAATPGRGDTPGHATPGHGGATSSARKNRWDETPKTERDTPGHGSGWAETPRTDRGGDSIGETPTPGASKRKSRWDETPASQMGGSTPVLTPGKTPIGTPAMNMATPTPGHIMSMTPEQLQAWRWEREIDERNRPLSDEELDAMFPEGYKVLPPPAGYVPIRTPARKLTATPTPLGGMTGFHMQTEDRTMKSVNDQPSGNLPFLKPDDIQYFDKLLVDVDESTLSPEEQKERKIMKLLLKIKNGTPPMRKAALRQITDKAREFGAGPLFNQILPLLMSPTLEDQERHLLVKVIDRILYKLDDLVRPYVHKILVVIEPLLIDEDYYARVEGREIISNLAKAAGLATMISTMRPDIDNMDEYVRNTTARAFAVVASALGIPSLLPFLKAVCKSKKSWQARHTGIKIVQQIAILMGCAILPHLRSLVEIIEHGLVDEQQKVRTISALAIAALAEAATPYGIESFDSVLKPLWKGIRQHRGKGLAAFLKAIGYLIPLMDAEYANYYTREVMLILIREFQSPDEEMKKIVLKVVKQCCGTDGVEANYIKTEILPPFFKHFWQHRMALDRRNYRQLVDTTVELANKVGAAEIISRIVDDLKDEAEQYRKMVMETIEKIMGNLGAADIDHKLEEQLIDGILYAFQEQTTEDSVMLNGFGTVVNALGKRVKPYLPQICGTVLWRLNNKSAKVRQQAADLISRTAVVMKTCQEEKLMGHLGVVLYEYLGEEYPEVLGSILGALKAIVNVIGMHKMTPPIKDLLPRLTPILKNRHEKVQENCIDLVGRIADRGAEYVSAREWMRICFELLELLKAHKKAIRRATVNTFGYIAKAIGPHDVLATLLNNLKVQERQNRVCTTVAIAIVAETCSPFTVLPALMNEYRVPELNVQNGVLKSLSFLFEYIGEMGKDYIYAVTPLLEDALMDRDLVHRQTASAVVQHMSLGVYGFGCEDSLNHLLNYVWPNVFETSPHVIQAVMGALEGLRVAIGPCRMLQYCLQGLFHPARKVRDVYWKIYNSIYIGSQDALIAHYPRIYNDDKNTYIRYDLDYIL
B5 was tested, and the binding was “binds”.

B6: Cleavage stimulation factor subunit 3 (protein, UniProt Q99LI7 1-717)
chain: MSGDAAAEQAAEYVPEKVKKAEKKLEENPYDLDAWSILIREAQNQPIDKARKTYERLVAQFPSSGRFWKLYIEAEIKAKNYDKVEKLFQRCLMKVLHIDLWKCYLSYVRETKGKLPSYKEKMAQAYDFALDKIGMEIMSYQIWVDYINFLKGVEAVGSYAENQRITAVRRVYQRGCVNPMINIEQLWRDYNKYEEGINIHLAKKMIEDRSRDYMNARRVAKEYETVMKGLDRNAPSVPPQNTPQEAQQVDMWKKYIQWEKSNPLRTEDQTLITKRVMFAYEQCLLVLGHHPDIWYEAAQYLEQSSKLLAEKGDMNNAKLFSDEAANIYERAISTLLKKNMLLYFAYADYEESRMKYEKVHSIYNRLLAIEDIDPTLVYIQYMKFARRAEGIKSGRMIFKKAREDARTRHHVYVTAALMEYYCSKDKSVAFKIFELGLKKYGDIPEYVLAYIDYLSHLNEDNNTRVLFERVLTSGSLPPEKSGEIWARFLAFESNIGDLASILKVEKRRFTAFREEYEGKETALLVDRYKFMDLYPCSASELKALGYKDVSRAKLAAIIPDPVVAPSIVPVLKDEVDRKPEYPKPDTQQMIPFQPRHLAPPGLHPVPGGVFPVPPAAVVLMKLLPPPICFQGPFVQVDELMEIFRRCKIPNTVEEAVRIITGGAPELAVEGNGPVESSAVLTKAVKRPNEDSDEDEEKGAVVPPVHDIYRARQQKRIR
With B6 the binding was “binds”.

B7: Tudor domain-containing protein 1 (protein, UniProt Q99MV1 1-1172)
chain: MMPRNNLEASTCKMAEPFNFEKKESKPPPQDPLRSPVAQHNHPTFRLKSPENGNTKNNFLLCEQNKQYLASQEDSSVVSSNPAVVNGEVGGSKGDRKPPPTGNPVSPLSLGNSSPPNQVKTKPSSNVTPEKSKKSHKLFENALSVNNPALFNSLGPPLRSTTCHRCGLFGSLRCSQCKQTYYCSTACQRRDWSSHSTICRPVQQSLNKLEDNKSPFETKAIEVKSEVDCPPGVTKEITAGAERVMFSDLRSLQLKKTMEIKGTVTEFKHPSNFYIQLYSSEVLENMNQLSTSLKETYANVVPEDGYLPVKGEVCVAKYTVDQTWNRAIVQAVDVLQRKAHVLYIDYGNEEMIPIDSVHPLSRGLDLFPPSAIKCCVSGVIPTAGEWSEGCVAAVKALLFEQFCSVKVMDILEEEVLTCAVDLVLQSSGKQLDHVLVEMGYGVKPGEQSSTEQSVDHSALEDVGRVTVESKIVTDRNALIPKVLTLNVGDEFCGVVAHIQTPEDFFCQQLQSGHKLAELQESLSEYCGHVIPRSDFYPTIGDVCCAQFSEDDQWYRASVLAYASEESVLVGYVDYGNFEILSLKRLCPIIPKLLDLPMQALNCVLAGVKPSLGIWTPEAVCVMKEMVQNRMVTVRVVGMLGTRALVELIDKSVAPHVSASKALIDSGFAIKEKDVADKGSSMHTASVPLAIEGPAEALEWTWVEFTVDETVDVVVCMMYSPGEFYCHFLKDDALEKLDDLNQSLADYCAQKPPNGFKAEIGRPCCAFFSGDGNWYRALVKEILPSGNVKVHFVDYGNVEEVTTDQLQAILPQFLLLPFQGMQCWLVDIQPPNKHWTKEATARFQACVVGLKLQARVVEITANGVGVELTDLSTPYPKIISDVLIREQLVLRCGSPQDSLMSRPANQHKQIDSHRVQASPSAEQWKTMELPVNKTIAANVLEIISPALFYAIPSEMSENQEKLCVLAAELLEHCNAQKGQPAYRPRTGDACCAKYTNDDFWYRAIVLETSESDVKVLYADYGNIETLPLSRVQPIPASHLELPFQIIRCSLEGPMELNGSCSQLVMELLRNAMLNQSVVLSVKAISKNVHAVSVEKCSENGMINIAENLVMCGLAENLTSKRKSASTKEIPHSRDCCCTELQKQIEKHEQILLFLLNNPTNQSKFTEMKKLLRS
B7 was tested, and the binding was “binds”.

B8: Deleted in azoospermia-like (protein, UniProt Q64368 1-298)
chain: MSATTSEAPNSAVSREASTQSSSATTSQGYVLPEGKIMPNTVFVGGIDVRMDETEIRSFFARYGSVKEVKIITDRTGVSKGYGFVSFYNDVDVQKIVESQINFHGKKLKLGPAIRKQNLCTYHVQPRPLIFNPPPPPQFQSVWSSPNAETYMQPPTMMNPITQYVQAYPPYPSSPVQVITGYQLPVYNYQMPPQWPAGEQRSYVIPPAYTTVNYHCSEVDPGADILPNECSVHDAAPASGNGPQKKSVDRSIQTVVSCLFNPENRLRNSLVTQDDYFKDKRVHHFRRSRAVLKSDHLC
With B8 the binding was “binds”.

No constants are given. Whether binding was seen depends on the method and setting. In cells and extracts the contact can be indirect. A yes stands for co-enrichment or nearness to the bait. Other partners may have been found.
